In the supplement of paper PMC10849652:
The other results are listed elsewhere or left out.

Chains of the proteins cited; added tags and fusions are not shown. Lines headed by an entry give the natural chain unless they say otherwise; changes in a name come on top.
UniProt O60645: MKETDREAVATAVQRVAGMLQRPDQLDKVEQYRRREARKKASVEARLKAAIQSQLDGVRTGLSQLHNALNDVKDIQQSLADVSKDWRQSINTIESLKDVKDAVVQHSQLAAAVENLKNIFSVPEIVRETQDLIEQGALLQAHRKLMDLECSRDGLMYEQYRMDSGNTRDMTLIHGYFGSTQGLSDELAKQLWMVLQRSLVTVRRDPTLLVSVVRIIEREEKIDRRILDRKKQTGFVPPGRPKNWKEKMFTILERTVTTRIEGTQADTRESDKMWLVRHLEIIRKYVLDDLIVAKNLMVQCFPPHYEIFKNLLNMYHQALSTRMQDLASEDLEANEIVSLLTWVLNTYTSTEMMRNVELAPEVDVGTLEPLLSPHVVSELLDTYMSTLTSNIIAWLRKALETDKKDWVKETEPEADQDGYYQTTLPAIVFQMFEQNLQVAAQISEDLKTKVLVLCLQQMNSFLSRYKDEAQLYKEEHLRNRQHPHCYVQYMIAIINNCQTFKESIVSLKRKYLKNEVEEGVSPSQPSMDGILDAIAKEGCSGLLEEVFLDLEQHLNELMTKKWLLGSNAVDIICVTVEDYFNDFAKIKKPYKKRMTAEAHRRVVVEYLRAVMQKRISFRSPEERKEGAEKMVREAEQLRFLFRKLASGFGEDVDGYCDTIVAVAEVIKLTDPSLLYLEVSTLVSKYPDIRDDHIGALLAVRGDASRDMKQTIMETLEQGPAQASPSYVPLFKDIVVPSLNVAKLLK
UniProt Q01469, whole entry, looked up: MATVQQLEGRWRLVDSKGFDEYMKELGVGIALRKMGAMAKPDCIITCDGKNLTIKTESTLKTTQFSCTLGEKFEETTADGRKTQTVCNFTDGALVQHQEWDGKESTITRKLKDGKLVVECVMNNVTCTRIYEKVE
UniProt Q96GK7: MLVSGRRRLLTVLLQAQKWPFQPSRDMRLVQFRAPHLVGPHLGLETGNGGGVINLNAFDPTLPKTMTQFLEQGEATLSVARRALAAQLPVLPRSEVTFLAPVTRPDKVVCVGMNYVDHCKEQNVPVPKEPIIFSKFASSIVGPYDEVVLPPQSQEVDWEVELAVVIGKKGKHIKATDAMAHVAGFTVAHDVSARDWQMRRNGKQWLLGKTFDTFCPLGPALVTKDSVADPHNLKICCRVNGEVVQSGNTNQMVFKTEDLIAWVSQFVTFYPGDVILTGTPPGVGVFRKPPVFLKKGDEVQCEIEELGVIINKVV
UniProt Q13868, whole entry, looked up: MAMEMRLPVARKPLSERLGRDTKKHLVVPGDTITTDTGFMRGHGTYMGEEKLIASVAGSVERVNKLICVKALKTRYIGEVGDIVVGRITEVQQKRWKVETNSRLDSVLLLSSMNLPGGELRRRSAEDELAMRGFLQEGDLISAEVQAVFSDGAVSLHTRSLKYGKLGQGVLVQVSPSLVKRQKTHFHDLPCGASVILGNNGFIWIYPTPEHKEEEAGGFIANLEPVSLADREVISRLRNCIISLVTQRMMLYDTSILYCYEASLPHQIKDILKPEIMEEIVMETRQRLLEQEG
UniProt O95571: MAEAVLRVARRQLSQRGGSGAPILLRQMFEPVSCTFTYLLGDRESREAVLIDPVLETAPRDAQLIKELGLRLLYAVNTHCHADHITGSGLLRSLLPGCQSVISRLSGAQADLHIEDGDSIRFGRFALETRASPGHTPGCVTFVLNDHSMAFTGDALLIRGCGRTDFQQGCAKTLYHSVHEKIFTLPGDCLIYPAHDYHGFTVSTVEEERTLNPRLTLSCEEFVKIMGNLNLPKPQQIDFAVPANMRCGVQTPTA
UniProt Q5RKV6, whole entry, looked up: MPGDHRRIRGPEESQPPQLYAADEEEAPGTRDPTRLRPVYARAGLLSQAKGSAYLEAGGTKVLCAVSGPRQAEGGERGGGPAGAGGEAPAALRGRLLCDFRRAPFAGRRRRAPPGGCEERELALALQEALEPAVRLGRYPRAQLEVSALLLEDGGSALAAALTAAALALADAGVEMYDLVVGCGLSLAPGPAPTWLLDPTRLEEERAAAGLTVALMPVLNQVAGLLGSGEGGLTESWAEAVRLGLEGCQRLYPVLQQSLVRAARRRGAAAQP
UniProt Q96RQ1: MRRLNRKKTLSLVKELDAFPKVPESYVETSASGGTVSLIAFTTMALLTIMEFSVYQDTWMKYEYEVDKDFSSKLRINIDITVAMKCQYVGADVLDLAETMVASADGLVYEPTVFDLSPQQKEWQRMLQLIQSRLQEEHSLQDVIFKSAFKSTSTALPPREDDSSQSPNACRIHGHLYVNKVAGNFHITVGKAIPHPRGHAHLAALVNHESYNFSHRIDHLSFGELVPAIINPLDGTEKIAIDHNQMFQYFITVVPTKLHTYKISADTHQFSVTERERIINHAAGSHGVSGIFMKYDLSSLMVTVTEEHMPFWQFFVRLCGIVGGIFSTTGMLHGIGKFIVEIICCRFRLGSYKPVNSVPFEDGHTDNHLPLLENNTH
UniProt A0FGR8: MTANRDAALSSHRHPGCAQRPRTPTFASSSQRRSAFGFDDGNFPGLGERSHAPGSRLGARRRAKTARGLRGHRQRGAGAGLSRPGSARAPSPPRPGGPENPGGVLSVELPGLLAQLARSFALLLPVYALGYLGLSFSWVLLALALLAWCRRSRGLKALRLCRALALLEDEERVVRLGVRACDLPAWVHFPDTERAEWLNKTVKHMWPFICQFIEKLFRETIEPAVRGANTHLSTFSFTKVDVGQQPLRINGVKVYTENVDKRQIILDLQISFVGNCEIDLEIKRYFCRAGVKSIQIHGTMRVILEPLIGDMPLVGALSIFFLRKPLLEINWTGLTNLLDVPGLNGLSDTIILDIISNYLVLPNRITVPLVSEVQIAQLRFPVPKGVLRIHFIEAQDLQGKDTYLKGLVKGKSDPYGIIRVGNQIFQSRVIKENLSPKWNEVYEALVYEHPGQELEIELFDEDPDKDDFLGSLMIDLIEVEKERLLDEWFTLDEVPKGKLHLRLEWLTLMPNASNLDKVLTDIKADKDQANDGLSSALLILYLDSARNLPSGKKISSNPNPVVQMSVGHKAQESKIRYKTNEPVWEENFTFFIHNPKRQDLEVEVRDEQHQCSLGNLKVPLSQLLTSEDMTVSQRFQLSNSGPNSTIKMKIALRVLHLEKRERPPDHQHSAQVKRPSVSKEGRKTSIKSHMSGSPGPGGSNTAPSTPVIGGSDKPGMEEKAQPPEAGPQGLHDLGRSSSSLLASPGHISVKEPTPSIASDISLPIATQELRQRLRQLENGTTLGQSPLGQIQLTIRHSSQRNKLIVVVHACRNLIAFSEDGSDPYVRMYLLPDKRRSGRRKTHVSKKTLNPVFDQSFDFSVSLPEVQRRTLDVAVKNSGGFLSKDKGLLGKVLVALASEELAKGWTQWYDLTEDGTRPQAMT
UniProt O43909: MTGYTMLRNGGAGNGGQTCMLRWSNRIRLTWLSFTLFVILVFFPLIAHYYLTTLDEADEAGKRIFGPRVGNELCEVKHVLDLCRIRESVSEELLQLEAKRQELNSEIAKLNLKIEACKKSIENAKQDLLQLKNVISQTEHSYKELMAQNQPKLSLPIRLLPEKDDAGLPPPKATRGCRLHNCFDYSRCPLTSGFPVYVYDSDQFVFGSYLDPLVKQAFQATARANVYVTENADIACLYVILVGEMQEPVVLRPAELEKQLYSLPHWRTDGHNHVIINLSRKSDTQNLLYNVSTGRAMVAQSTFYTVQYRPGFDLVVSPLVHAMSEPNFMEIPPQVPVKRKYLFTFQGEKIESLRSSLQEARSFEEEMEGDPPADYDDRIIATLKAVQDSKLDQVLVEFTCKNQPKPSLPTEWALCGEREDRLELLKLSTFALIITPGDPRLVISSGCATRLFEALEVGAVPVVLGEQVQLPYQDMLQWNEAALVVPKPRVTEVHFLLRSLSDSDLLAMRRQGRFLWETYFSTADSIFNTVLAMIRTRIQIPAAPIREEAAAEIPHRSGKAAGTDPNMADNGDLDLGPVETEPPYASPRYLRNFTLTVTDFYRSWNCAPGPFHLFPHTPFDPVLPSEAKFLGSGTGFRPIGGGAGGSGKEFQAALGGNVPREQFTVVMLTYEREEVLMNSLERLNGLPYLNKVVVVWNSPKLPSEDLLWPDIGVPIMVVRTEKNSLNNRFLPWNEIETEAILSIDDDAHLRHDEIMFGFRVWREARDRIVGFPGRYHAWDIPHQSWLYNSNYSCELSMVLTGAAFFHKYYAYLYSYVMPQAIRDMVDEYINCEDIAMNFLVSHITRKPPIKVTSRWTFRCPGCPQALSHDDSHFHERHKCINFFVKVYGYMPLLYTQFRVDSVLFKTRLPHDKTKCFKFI
UniProt Q5BKY9: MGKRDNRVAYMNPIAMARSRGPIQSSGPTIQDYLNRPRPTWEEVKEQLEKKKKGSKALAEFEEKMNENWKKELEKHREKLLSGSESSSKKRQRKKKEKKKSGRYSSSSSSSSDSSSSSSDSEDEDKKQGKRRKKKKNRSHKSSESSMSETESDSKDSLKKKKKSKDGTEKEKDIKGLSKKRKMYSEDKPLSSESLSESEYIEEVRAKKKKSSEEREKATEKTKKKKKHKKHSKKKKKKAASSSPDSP
UniProt Q9Y2J2, whole entry, looked up: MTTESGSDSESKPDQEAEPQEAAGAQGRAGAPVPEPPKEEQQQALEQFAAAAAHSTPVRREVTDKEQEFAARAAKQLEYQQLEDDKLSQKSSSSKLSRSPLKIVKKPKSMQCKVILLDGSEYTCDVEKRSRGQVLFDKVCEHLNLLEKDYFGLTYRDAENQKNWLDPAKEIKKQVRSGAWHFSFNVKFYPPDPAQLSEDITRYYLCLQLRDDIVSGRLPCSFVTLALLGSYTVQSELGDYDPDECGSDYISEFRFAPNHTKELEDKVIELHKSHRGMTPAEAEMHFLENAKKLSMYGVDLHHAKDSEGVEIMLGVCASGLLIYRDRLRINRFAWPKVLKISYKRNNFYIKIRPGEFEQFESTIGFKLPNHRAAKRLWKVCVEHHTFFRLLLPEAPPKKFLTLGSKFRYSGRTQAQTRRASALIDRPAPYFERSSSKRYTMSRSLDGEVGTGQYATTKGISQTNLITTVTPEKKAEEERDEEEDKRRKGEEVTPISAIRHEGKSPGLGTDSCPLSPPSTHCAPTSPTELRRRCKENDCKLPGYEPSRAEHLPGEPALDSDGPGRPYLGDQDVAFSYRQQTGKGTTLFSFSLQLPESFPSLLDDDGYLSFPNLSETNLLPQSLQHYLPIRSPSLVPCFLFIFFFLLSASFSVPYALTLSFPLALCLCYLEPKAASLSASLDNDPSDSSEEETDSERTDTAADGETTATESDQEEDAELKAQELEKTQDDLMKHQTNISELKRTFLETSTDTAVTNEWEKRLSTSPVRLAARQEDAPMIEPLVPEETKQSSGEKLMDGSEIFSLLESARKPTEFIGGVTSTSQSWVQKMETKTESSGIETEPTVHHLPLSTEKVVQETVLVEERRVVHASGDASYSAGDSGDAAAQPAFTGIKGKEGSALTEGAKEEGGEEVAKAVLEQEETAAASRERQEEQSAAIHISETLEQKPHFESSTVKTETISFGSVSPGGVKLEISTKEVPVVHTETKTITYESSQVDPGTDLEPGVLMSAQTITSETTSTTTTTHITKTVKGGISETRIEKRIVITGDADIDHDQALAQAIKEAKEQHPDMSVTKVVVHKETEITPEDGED
UniProt Q9UPT5: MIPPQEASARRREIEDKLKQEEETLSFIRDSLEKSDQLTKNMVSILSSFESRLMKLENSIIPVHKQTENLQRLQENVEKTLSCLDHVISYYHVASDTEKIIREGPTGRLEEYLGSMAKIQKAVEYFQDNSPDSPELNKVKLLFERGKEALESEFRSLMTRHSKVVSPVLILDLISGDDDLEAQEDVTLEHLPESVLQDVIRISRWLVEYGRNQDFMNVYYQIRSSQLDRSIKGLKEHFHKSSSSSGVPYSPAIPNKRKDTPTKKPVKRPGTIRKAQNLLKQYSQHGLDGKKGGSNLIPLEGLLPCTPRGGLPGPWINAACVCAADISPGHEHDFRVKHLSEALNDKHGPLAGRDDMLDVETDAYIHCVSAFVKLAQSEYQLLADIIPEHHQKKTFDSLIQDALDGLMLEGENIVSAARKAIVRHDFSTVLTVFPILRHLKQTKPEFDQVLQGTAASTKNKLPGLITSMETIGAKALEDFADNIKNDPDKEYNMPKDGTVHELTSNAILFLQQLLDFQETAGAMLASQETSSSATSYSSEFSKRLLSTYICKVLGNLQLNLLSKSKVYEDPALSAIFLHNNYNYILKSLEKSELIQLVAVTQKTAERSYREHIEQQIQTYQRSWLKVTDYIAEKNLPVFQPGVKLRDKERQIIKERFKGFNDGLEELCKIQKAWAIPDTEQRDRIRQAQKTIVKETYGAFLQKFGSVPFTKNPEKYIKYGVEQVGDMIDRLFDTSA

Experiments:
Assay in all cases: log2 fold change, soluble protein after heating vs DMSO (PISA); higher = thermal stabilisation; K562 cells, 10 uM, 30 min; active = over 0.2 and 3.5 SD of the protein, either way, in both replicates (recomputed)
[1] = compound: COC1=CC=C(C=C1)CN2C=CC3=C2C=C(C=C3)C(=O)NO
Method in brief: (§1)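 Values are thermal stability changes relative to control samples and are taken from duplicates. They are stated as log2 fold changes. Before quantification by TMTpro 16plex LC-MS/MS with equalised channel sums, K562 cells at 2×10^6 cells/mL were treated with 10 μM compound for 30 min, heated in aliquots for 3 min across 48°C-58°C, pooled, extracted in PBS with 0.5% NP-40 at 4°C, and centrifuged at 21,000xg for 90 min to give the soluble supernatant.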

filanesib = compound: CON(C)C(=O)N1N=C(c2cc(F)ccc2F)S[C@@]1(CCCN)c1ccccc1 [filanesib]
Method in brief: as §1

zotarolimus = compound: CO[C@H]1C[C@@H]2CC[C@@H](C)[C@@](O)(O2)C(=O)C(=O)N2CCCC[C@H]2C(=O)O[C@H]([C@H](C)C[C@@H]2CC[C@H](n3cnnn3)[C@H](OC)C2)CC(=O)[C@H](C)/C=C(\C)[C@@H](O)[C@@H](OC)C(=O)[C@H](C)C[C@H](C)/C=C/C=C/C=C/1C [zotarolimus]
Method in brief: as §1

idasanutlin = compound: COc1cc(C(=O)O)ccc1NC(=O)[C@@H]1N[C@@H](CC(C)(C)C)[C@](C#N)(c2ccc(Cl)cc2F)[C@H]1c1cccc(Cl)c1F [idasanutlin]
Method in brief: as §1

alisertib = compound: COc1cc(Nc2ncc3c(n2)-c2ccc(Cl)cc2C(c2c(F)cccc2OC)=NC3)ccc1C(=O)O [alisertib]
Method in brief: as §1

[2] = compound: COc1cc2nc(-c3cc(F)ccc3O)nc(N[C@@H]3CNC[C@H]3C(C)(C)O)c2cc1OC
Method in brief: as §1

gefitinib = compound: COc1cc2ncnc(Nc3ccc(F)c(Cl)c3)c2cc1OCCCN1CCOCC1 [gefitinib]
Method in brief: as §1

[3] = compound: COc1cccc2cc(-c3nc([C@H]4CC[C@H](C(=O)O)CC4)n4ncnc(N)c34)[nH]c12
Method in brief: as §1

lapatinib = compound: CS(=O)(=O)CCNCc1ccc(-c2ccc3ncnc(Nc4ccc(OCc5cccc(F)c5)c(Cl)c4)c3c2)o1 [lapatinib]
Method in brief: as §1

pictilisib = compound: CS(=O)(=O)N1CCN(Cc2cc3nc(-c4cccc5[nH]ncc45)nc(N4CCOCC4)c3s2)CC1 [pictilisib]
Method in brief: as §1

[4] = compound: CS(=O)(=O)c1ccc(-c2cnc(N)c(C(=O)Nc3ccccc3)n2)cc1
Method in brief: as §1

crizotinib = compound: C[C@@H](Oc1cc(-c2cnn(C3CCNCC3)c2)cnc1N)c1c(Cl)ccc(F)c1Cl [crizotinib]
Method in brief: as §1

[5] = compound: C[C@@H]1COCCN1C2=NC(=NC(=C2)C3(CC3)S(=O)(=O)C)C4=C5C=CNC5=CC=C4
Method in brief: as §1

[6] = compound: C[C@H](C1=CC=C(C=C1)C(=O)NC2=C3C=CNC3=NC=C2)N
Method in brief: as §1

duvelisib = compound: C[C@H](Nc1ncnc2nc[nH]c12)c1cc2cccc(Cl)c2c(=O)n1-c1ccccc1 [duvelisib]
Method in brief: as §1

gandotinib = compound: Cc1cc(Nc2cc(CN3CCOCC3)c3nc(C)c(Cc4ccc(Cl)cc4F)n3n2)n[nH]1 [gandotinib]
Method in brief: as §1

tozasertib = compound: Cc1cc(Nc2cc(N3CCN(C)CC3)nc(Sc3ccc(NC(=O)C4CC4)cc3)n2)n[nH]1 [tozasertib]
Method in brief: as §1

[7] = compound: Cc1cc(SCc2sc(-c3ccc(C(F)(F)F)cc3)nc2C)ccc1OCC(=O)O
Method in brief: as §1

doramapimod = compound: Cc1ccc(-n2nc(C(C)(C)C)cc2NC(=O)Nc2ccc(OCCN3CCOCC3)c3ccccc23)cc1 [doramapimod]
Method in brief: as §1

ispinesib = compound: Cc1ccc(C(=O)N(CCCN)[C@@H](c2nc3cc(Cl)ccc3c(=O)n2Cc2ccccc2)C(C)C)cc1 [ispinesib]
Method in brief: as §1

Measured: log2 fold change

ERGIC1 (UniProt Q969X5)
inactive: [1] 0.013 | filanesib -0.008 | zotarolimus -0.032 | idasanutlin -0.016 | alisertib -0.035 | [2] -0.008 | gefitinib 0.015 | [3] 0.048 | lapatinib 0.034 | pictilisib 0.118 | [4] 0.015 | crizotinib 0.03 | [5] -0.028 | [6] -0.004 | duvelisib 0.009 | gandotinib 0.003 | tozasertib 0.017 | [7] 0.012 | doramapimod -0.023 | ispinesib -0.033

FAHD1 (UniProt Q6P587)
inactive: [1] -0.029 | filanesib -0.035 | zotarolimus -0.079 | idasanutlin -0.021 | alisertib -0.039 | [2] -0.014 | gefitinib 0.016 | [3] 0.061 | lapatinib -0.032 | pictilisib -0.107 | [4] 0.027 | crizotinib 0.05 | [5] 0.014 | [6] -0.012 | duvelisib 0.045 | gandotinib 0.037 | tozasertib 0.003 | [7] -0.018 | doramapimod 0.032 | ispinesib 0.004

ESRRA (UniProt P11474)
inactive: [1] -0.083 | filanesib -0.028 | zotarolimus 0.02 | idasanutlin 0.077 | alisertib 0.183 | [2] 0.044 | gefitinib -0.083 | [3] -0.11 | lapatinib 0.009 | pictilisib 0.041 | [4] 0.016 | crizotinib 0.195 | [5] -0.046 | [6] -0.036 | duvelisib -0.009 | gandotinib 0.003 | tozasertib 0.09 | [7] 0.056 | doramapimod 0.056 | ispinesib -0.063

EXOC3 (UniProt O60645)
inactive: [1] 0.209 | filanesib -0.026 | zotarolimus 0.033 | idasanutlin -0.079 | alisertib -0.038 | [2] 0.146 | gefitinib 0.023 | [3] -0.108 | lapatinib -0.036 | pictilisib -0.104 | [4] 0.037 | crizotinib -0.135 | [5] 0 | [6] 0.117 | duvelisib -0.008 | gandotinib -0.22 | tozasertib -0.049 | [7] 0.098 | doramapimod 0.032 | ispinesib -0.246

FABP5 (UniProt Q01469)
inactive: [1] 0.013 | filanesib -0.044 | zotarolimus 0.035 | idasanutlin 0.013 | alisertib 0.85 | [2] -0.076 | gefitinib 0.027 | [3] 0.03 | lapatinib 0.064 | pictilisib -0.069 | [4] 0 | crizotinib 0.041 | [5] 0.037 | [6] 0.06 | duvelisib -0.054 | gandotinib 0.142 | tozasertib 0.054 | [7] -0.009 | doramapimod -0.092 | ispinesib 0.169

FAHD2A (UniProt Q96GK7)
inactive: [1] 0.008 | filanesib -0.022 | zotarolimus 0.018 | idasanutlin -0.021 | alisertib -0.058 | [2] 0.058 | gefitinib 0.038 | [3] 0.04 | lapatinib -0.031 | pictilisib 0.063 | [4] 0.015 | crizotinib 0.095 | [5] -0.032 | [6] -0.049 | duvelisib -0.006 | gandotinib 0.07 | tozasertib -0.002 | [7] -0.01 | doramapimod -0.061 | ispinesib 0.102

EXOSC2 (UniProt Q13868)
inactive: [1] -0.018 | filanesib -0.008 | zotarolimus -0.022 | idasanutlin -0.035 | alisertib -0.087 | [2] 0.012 | gefitinib 0 | [3] 0.048 | lapatinib 0.011 | pictilisib 0.033 | [4] -0.064 | crizotinib 0.042 | [5] 0.003 | [6] 0.008 | duvelisib 0.018 | gandotinib -0.047 | tozasertib -0.019 | [7] -0.047 | doramapimod 0 | ispinesib 0.003

ERP29 (UniProt P30040)
inactive: [1] 0.016 | filanesib -0.017 | zotarolimus 0 | idasanutlin 0.088 | alisertib -0.069 | [2] -0.032 | gefitinib 0.01 | [3] -0.007 | lapatinib -0.007 | pictilisib 0.002 | [4] 0.018 | crizotinib 0.039 | [5] -0.041 | [6] 0.006 | duvelisib -0.008 | gandotinib 0.079 | tozasertib 0.006 | [7] 0.01 | doramapimod -0.003 | ispinesib 0.031

ETHE1 (UniProt O95571)
inactive: [1] 0.018 | filanesib 0.008 | zotarolimus -0.02 | idasanutlin -0.035 | alisertib 0.034 | [2] 0.059 | gefitinib 0.025 | [3] 0.033 | lapatinib -0.016 | pictilisib -0.106 | [4] 0.002 | crizotinib 0.094 | [5] 0.031 | [6] -0.042 | duvelisib 0.028 | gandotinib 0.168 | tozasertib -0.054 | [7] -0.093 | doramapimod -0.028 | ispinesib 0.039

EXOSC6 (UniProt Q5RKV6)
inactive: [1] -0.062 | filanesib -0.035 | zotarolimus -0.006 | idasanutlin -0.009 | alisertib -0.04 | [2] -0.08 | gefitinib -0.013 | [3] 0.038 | lapatinib 0.035 | pictilisib 0.031 | [4] -0.058 | crizotinib 0.048 | [5] 0.021 | [6] -0.061 | duvelisib -0.018 | gandotinib -0.008 | tozasertib 0.025 | [7] -0.002 | doramapimod 0.061 | ispinesib 0.024

ERGIC2 (UniProt Q96RQ1)
inactive: [1] 0.092 | filanesib -0.144 | zotarolimus 0.001 | idasanutlin -0.071 | alisertib -0.011 | [2] -0.102 | gefitinib -0.01 | [3] 0.037 | lapatinib 0.01 | pictilisib -0.077 | [4] 0.006 | crizotinib -0.087 | [5] 0.076 | [6] -0.067 | duvelisib -0.002 | gandotinib -0.077 | tozasertib -0.031 | [7] 0.025 | doramapimod -0.007 | ispinesib -0.145

ESYT2 isoform 2 (UniProt A0FGR8)
inactive: [1] -0.015 | filanesib -0.022 | zotarolimus 0.012 | idasanutlin 0.006 | alisertib 0.034 | [2] 0.006 | gefitinib 0.059 | [3] 0.016 | lapatinib 0.018 | pictilisib 0.092 | [4] 0.049 | crizotinib 0.002 | [5] 0.015 | [6] -0.025 | duvelisib 0.089 | gandotinib -0.021 | tozasertib -0.011 | [7] 0.05 | doramapimod -0.024 | ispinesib -0.104

EXTL3 (UniProt O43909)
inactive: [1] -0.056 | filanesib -0.094 | zotarolimus 0.066 | idasanutlin -0.001 | alisertib 0.094 | [2] 0.06 | gefitinib 0.009 | [3] 0.219 | lapatinib 0.047 | pictilisib 0.067 | [4] 0.16 | crizotinib 0.006 | [5] 0.168 | [6] 0.16 | duvelisib -0.126 | gandotinib -0.123 | tozasertib 0.059 | [7] -0.051 | doramapimod 0.008 | ispinesib -0.06

FAM133B (UniProt Q5BKY9)
inactive: [1] -0.121 | filanesib 0.142 | zotarolimus -0.007 | idasanutlin 0.045 | alisertib -0.053 | [2] -0.042 | gefitinib 0.039 | [3] 0.03 | lapatinib -0.04 | pictilisib 0.016 | [4] 0.014 | crizotinib 0.014 | [5] -0.12 | [6] -0.037 | duvelisib -0.014 | gandotinib 0.031 | tozasertib 0.007 | [7] 0.017 | doramapimod -0.049 | ispinesib 0.005

EPB41L3 (UniProt Q9Y2J2)
inactive: [1] -0.162 | filanesib 0.091 | zotarolimus -0.019 | idasanutlin 0.002 | alisertib -0.042 | [2] -0.024 | gefitinib 0.027 | [3] -0.03 | lapatinib -0.045 | pictilisib 0.06 | [4] 0.015 | crizotinib 0.006 | [5] 0.072 | [6] -0.112 | duvelisib 0.026 | gandotinib -0.059 | tozasertib -0.062 | [7] -0.016 | doramapimod -0.013 | ispinesib 0.013

EXOC7 (UniProt Q9UPT5)
inactive: [1] 0.023 | filanesib 0.032 | zotarolimus 0.01 | idasanutlin -0.076 | alisertib -0.024 | [2] 0.149 | gefitinib -0.054 | [3] -0.053 | lapatinib -0.031 | pictilisib -0.057 | [4] -0.062 | crizotinib -0.25 | [5] -0.028 | [6] 0.034 | gandotinib -0.122 | [7] 0.05 | doramapimod -0.029
active: ispinesib -0.346

Quoted from the results shown (2 entries):
FAHD1 (UniProt Q6P587)
inactive: [1] -0.029 | filanesib -0.035 | zotarolimus -0.079 | idasanutlin -0.021 | alisertib -0.039 | [2] -0.014 | gefitinib 0.016 | [3] 0.061 | lapatinib -0.032 | pictilisib -0.107 | [4] 0.027 | crizotinib 0.05 | [5] 0.014 | [6] -0.012 | duvelisib 0.045 | gandotinib 0.037 | tozasertib 0.003 | [7] -0.018 | doramapimod 0.032 | ispinesib 0.004

ESRRA (UniProt P11474)
inactive: [1] -0.083 | filanesib -0.028 | zotarolimus 0.02 | idasanutlin 0.077 | alisertib 0.183 | [2] 0.044 | gefitinib -0.083 | [3] -0.11 | lapatinib 0.009 | pictilisib 0.041 | [4] 0.016 | crizotinib 0.195 | [5] -0.046 | [6] -0.036 | duvelisib -0.009 | gandotinib 0.003 | tozasertib 0.09 | [7] 0.056 | doramapimod 0.056 | ispinesib -0.063
